The results in this text go back to article PMC7022278, “Alpha-Amylase and Alpha-Glucosidase Enzyme Inhibition and Antioxidant Potential of 3-Oxolupenal and Katononic Acid Isolated from Nuxia oppositifolia” (Biomolecules, 2019).

In this data set the test system is α-glucosidase. The data set can be described thus: Fluorescence quenching-based binding study, α-glucosidase. The conditions noted are these: 298 K, pH 6.8. Here is the method:
Proteins were excited at 295 nm and the fluorescence spectra were recorded in the 300–450 nm range. The excitation and emission slit widths were set at 5 nm each. The concentration of proteins was fixed at 2 µM while the concentration of quenchers was varied. The inner filter effect contributed by quenchers was corrected using the following relation. (2) Fcorr=Fobs×e^(Aex+Aem)/2 where Fcorr is the corrected fluorescence intensity, Fobs is the observed fluorescence intensity, Aex is the absorbance at the excitation wavelength, and Aem is the absorbance at the emission wavelength.
Observing quenching in the fluorescence intensity of a protein in the presence of a ligand is a powerful tool in determining the binding parameters such as binding affinity and Gibb’s free energy of stabilization. Here, we have followed quenching in the fluorescence intensity of α-amylase and α-glucosidase in the presence of 3-oxolupenal and katononic acid at 298 K (Figure 4 and Figure 5). […] The binding parameters for the interaction were deduced using the following Stern–Volmer and modified Stern–Volmer equations. (3) Fo/F=1+KSV[Q]=1+kqτo[Q] […]

For `CC1(C)C(=O)CC[C@]2(C)[C@H]3CC=C4[C@@H]5C[C@](C)(C(=O)O)CC[C@]5(C)CC[C@@]4(C)[C@]3(C)CC[C@@H]12` [Katononic acid, katononic acid], the “Number of Binding Sites n” value came to 0.8239. For the compound `C=C(C=O)[C@@H]1CC[C@]2(C)CC[C@]3(C)[C@H](CC[C@@H]4[C@@]5(C)CCC(=O)C(C)(C)[C@@H]5CC[C@]43C)[C@@H]12` [3-oxolupenal], the “Number of Binding Sites n” value is 0.9133.
